{
  "source": "PubChem BioAssay AID540276",
  "about": "(National Center for Advancing Translational Sciences (NCATS), 2011)",
  "note": "Values joined by “and” are separate entries in the source; they are usually repeats but may differ in a detail not shown here. Equal values may be shown once. About 5,400 (1.8%) of roughly 300,000 compounds were called active. The inconclusive results got no clear call from the source; some entries with a clear call stand among them for comparison. Calls follow the shape of the full dose curve; tested in HEK293 cells. Potencies beside an inconclusive call are fits to weak or partial responses and may not hold up.",
  "data": [
    {"assay": "qHTS for inhibitors of binding or entry into cells for Marburg Virus; also: potency is read from the fitted curve at half-maximal effect; as to activity change, negative = inhibition: % is scaled to controls: 0 for no effect and ±100 for the full control effect", "conditions": "Marburg virus pseudotyped entry inhibition, cell reporter; activity change, negative = inhibition: at 37.8 µM (top of the series) unless noted", "values": [
      {"compound": "C[N+]1(C)C2CC(OC(=O)[C@H](CO)c3ccccc3)CC1C1OC12", "note": "(stereo not given in full)", "Potency": "inconclusive: 0.0045 µM [inhibitor, full curve, poor fit]"},
      {"compound": "COc1ccccc1N1CCN(C(=O)c2ccc(NS(=O)(=O)c3ccc(C)cc3)cc2)CC1", "Potency": "inconclusive: 12.6 µM [inhibitor, single point]"},
      {"compound": "N#Cc1ccccc1CSc1nc2ccsc2c(=O)n1Cc1ccccn1", "Potency": "inconclusive: 0.447 µM [activator, partial curve, poor fit]"},
      {"compound": "Cc1ccc(N(CC(=O)NCCSc2nc3ccccc3s2)S(=O)(=O)c2ccccc2)c(C)c1", "Potency": "inconclusive: 10 µM [inhibitor, partial curve, poor fit]"},
      {"compound": "COc1cc(/C=C(\\C#N)c2nc3ccccc3n2C)cc(OC)c1O", "Potency": "inconclusive: 35.5 µM [inhibitor, single point]"},
      {"compound": "CCc1c(C(=O)Nc2ccc(C)c(C)c2)[nH]c(C)c1C(C)=O", "Potency": "inconclusive: 35.5 µM [inhibitor, single point]"},
      {"compound": "CCC(=O)Nc1nc(=S)ss1", "Potency": "inconclusive: 0.1 µM [inhibitor, full curve, poor fit]"},
      {"compound": "Cc1n(Cc2ccccc2)c2ccccc2[n+]1Cc1ccccc1", "Potency": "inconclusive: 11.2 µM [inhibitor, partial curve, poor fit]"},
      {"compound": "COc1ccc(N(CC(=O)Nc2cccc(N(C)S(C)(=O)=O)c2)S(=O)(=O)c2ccccc2)cc1Cl", "Potency": "inconclusive: 1.3 µM [inhibitor, single point]"},
      {"compound": "CCOC(=O)C1(c2ccccc2)CCN(CCC(=O)Nc2cccc(Br)c2)CC1", "Potency": "active: 2.82 µM"},
      {"compound": "CC(C)C(c1nnnn1C1CCCCC1)N1CCN(C(=O)c2ccco2)CC1", "note": "(stereo not given)", "Potency": "inconclusive: 4.47 µM [inhibitor, single point]"},
      {"compound": "O=C(Nc1ccc(NC(=O)c2cccs2)cc1)c1cccs1", "Potency": "inconclusive: 1 µM [activator, full curve, poor fit]"},
      {"compound": "COc1ccc(/C=N/N2CCOCC2)cc1OCc1ccccc1", "Potency": "inactive"},
      {"compound": "Cc1nc(NC(=O)c2ccccc2)sc1-c1csc(NCc2ccco2)n1", "Potency": "inconclusive: 32.6 µM [inhibitor, single point]"},
      {"compound": "CN(CC(=O)Nc1ccc(F)c(F)c1F)C(=O)c1cc(-c2ccncc2)nc2ccccc12", "Potency": "inconclusive: 3.55 µM [inhibitor, partial curve, poor fit]"},
      {"compound": "O=C(COc1ccc(Cl)cc1Cl)Nc1ccc(Cl)cn1", "Potency": "inconclusive: 29.1 µM [inhibitor, single point]"},
      {"compound": "Cc1c(C(=O)Nc2ccc(S(=O)(=O)Nc3ncccn3)cc2)oc2ccc(Cl)cc12", "Potency": "inconclusive: 3.16 µM [inhibitor, single point]"},
      {"compound": "COc1ccc(NC(=O)c2ccco2)cc1NC(=O)C(C)Oc1ccc(Cl)cc1Cl", "note": "(stereo not given)", "Potency": "inconclusive: 14.1 µM [inhibitor, partial curve, poor fit]"},
      {"compound": "CN1CCN(S(=O)(=O)c2ccc(NC(=O)c3ccccc3Cl)cc2)CC1", "Potency": "inactive"},
      {"compound": "OC(CN1CCCC(C(F)(F)F)C1)c1ccccc1", "note": "(stereo not given)", "Potency": "inconclusive: 5.62 µM [activator, single point]"},
      {"compound": "Cc1ccc(SCc2nc(N)nc(Nc3ccccc3C)n2)c(C)c1", "Potency": "inactive"},
      {"compound": "CCC(=O)NC(NC(=O)CC)C(Cl)Cl", "Potency": "inconclusive: 6.51 µM [activator, partial curve]"},
      {"compound": "CCCOC(=O)c1ccc(NC(=O)Cn2nnc3sc4c(c3c2=O)CCC(C(C)(C)C)C4)cc1", "note": "(stereo not given)", "Potency": "inconclusive: 2.82 µM [inhibitor, full curve, poor fit]"},
      {"compound": "CCn1cc(C(=O)O)c(=O)c2cc(F)c(N/N=C/c3ccccc3[N+](=O)[O-])cc21", "Potency": "inactive"},
      {"compound": "CC1CCCN(c2ccc(C(=O)OCC(=O)N3c4ccccc4Sc4ccccc43)cc2[N+](=O)[O-])C1", "note": "(stereo not given)", "Potency": "inconclusive: 35.5 µM [inhibitor, single point]"},
      {"compound": "CCn1c(C)c(C2=CCN(S(=O)(=O)c3ccc(C)cc3)CC2)c2ccccc21", "Potency": "inconclusive: 5.01 µM [inhibitor, full curve, poor fit]"},
      {"compound": "Cc1ccccc1-n1sc2cc(F)ccc2c1=O", "Potency": "inconclusive: 11.2 µM [inhibitor, partial curve, poor fit]"},
      {"compound": "O=C(Nc1ccc(F)cc1F)c1noc2c1CCC2", "Potency": "inactive"},
      {"compound": "COc1ccc(OC)c(-c2cc(C(=O)Nc3c(C)nn(Cc4ccc(Cl)cc4)c3C)no2)c1", "Potency": "inconclusive: 25.9 µM [inhibitor, single point]"},
      {"compound": "O=C(Nc1nc(-c2ccc(Cl)s2)cs1)c1cccs1", "Potency": "inactive"},
      {"compound": "O=S(=O)(Nc1ccc2nc(N3CCOCC3)sc2c1)c1ccccc1", "Potency": "inactive"},
      {"compound": "CC(Sc1ncnc2sc(-c3ccccc3)cc12)C(=O)NCC1CCCO1", "note": "(stereo not given)", "Potency": "inconclusive: 17.8 µM [inhibitor, single point]"},
      {"compound": "O=C(COC(=O)/C=C/c1ccc(F)cc1)NC1CCS(=O)(=O)C1", "note": "(stereo not given)", "Potency": "inactive"},
      {"compound": "CC(Oc1cccc(Cl)c1)C(=O)Nc1ccccc1N1CCCCC1", "note": "(stereo not given)", "Potency": "inconclusive: 20 µM [inhibitor, partial curve, poor fit]"},
      {"compound": "Cc1c(C(=O)OCC(=O)N2CCCC2)cccc1[N+](=O)[O-]", "Potency": "inconclusive: 1.12 µM [activator, partial curve, poor fit]"},
      {"compound": "O=C(NN=Cc1ccc(N(CCCl)CCCl)cc1)c1cc(=O)[nH]c(=O)[nH]1", "Potency": "inconclusive: 1.41 µM [inhibitor, full curve, poor fit]"},
      {"compound": "N/C(=N\\OC(=O)c1ccc(Cl)cc1Cl)c1ccccc1", "Potency": "inconclusive: 13 µM [inhibitor, partial curve, poor fit]"},
      {"compound": "O=C(COC(=O)c1cccs1)NCC1CCCCC1", "activity change, negative = inhibition": "inconclusive: 54.3% [activator] [at 46.1 µM]"},
      {"compound": "COc1ccc(CSc2nc(C)cc(C)c2C#N)cc1", "Potency": "inconclusive: 5.62 µM [inhibitor, partial curve]"},
      {"compound": "CC(Sc1nc2c(c(=O)n(C)c(=O)n2C)n1Cc1cc2c(cc1Cl)OCO2)C(=O)O", "note": "(stereo not given)", "Potency": "inactive"},
      {"compound": "CNC(=S)NC1CC2CCCC(C1)N2Cc1ccccc1OC", "note": "(stereo not given)", "Potency": "inconclusive: 7.94 µM [inhibitor, partial curve, poor fit]"},
      {"compound": "O=C(Cc1cccs1)NCc1ccc(F)cc1", "Potency": "inactive"},
      {"compound": "O=C(NCC(O)CO)c1csc(Nc2cccc3ccccc23)n1", "note": "(stereo not given)", "activity change, negative = inhibition": "inconclusive: 2.09% [activator]"},
      {"compound": "CC(=O)c1c(C)[nH]c(C(=O)CSc2ncnc3sc(-c4ccccc4)cc23)c1C", "Potency": "inconclusive: 2 µM [inhibitor, full curve, poor fit]"},
      {"compound": "COc1cc(NC(=O)Cn2nc(C(F)(F)F)c3c2CCCC3)cc(OC)c1OC", "Potency": "inconclusive: 14.1 µM [inhibitor, single point] and inconclusive: 35.5 µM [inhibitor, single point]"},
      {"compound": "CN(CCC#N)C(=O)COC(=O)c1c2c(nc3ccccc13)/C(=C\\c1ccco1)CC2", "Potency": "inconclusive: 3.16 µM [activator, partial curve, poor fit]"},
      {"compound": "Cc1nc2c([nH]1)c(=O)n(C)c(=O)n2Cc1ccco1", "Potency": "inactive and inconclusive: 39.8 nM [inhibitor, partial curve, poor fit]"},
      {"compound": "COc1ccc(S(=O)(=O)N2CCc3ccccc32)cc1OC", "Potency": "inconclusive: 6.31 µM [inhibitor, partial curve, poor fit]"},
      {"compound": "CC(=O)OCC1OC(n2ccc(=O)[nH]c2=O)C(O)C1O", "note": "(stereo not given)", "Potency": "inactive"},
      {"compound": "O=C(c1sc2cc([N+](=O)[O-])ccc2c1Cl)N1CCCCC1", "Potency": "inconclusive: 1.26 µM [inhibitor, single point]"},
      {"compound": "O=C(O)CCC(=O)Nc1ccc(-c2nc3ccc(C(=O)c4ccccc4)cc3[nH]2)cc1", "Potency": "inactive"},
      {"compound": "COCCCNC(=O)C1CC(=O)OC1c1ccc(OC)c(OC)c1", "note": "(stereo not given)", "Potency": "inactive"},
      {"compound": "Cc1ccc(OCc2ccc(-c3nc(C#N)c(N4CCN(c5cccc(Cl)c5)CC4)o3)o2)cc1", "Potency": "inconclusive: 35.5 µM [activator, single point]"},
      {"compound": "Cc1c(NS(=O)(=O)c2ccc3nc(COc4ccccc4Cl)[nH]c3c2)c(=O)n(-c2ccccc2)n1C", "Potency": "inconclusive: 8.91 µM [activator, partial curve, poor fit]"},
      {"compound": "CC(C)C1C(=O)N(Cc2cn(Cc3ccco3)nn2)CCS(=O)(=O)N1Cc1ccc(-c2cccc(N(C)C)c2)cc1", "note": "(stereo not given)", "Potency": "inconclusive: 0.0005 µM [activator, full curve, poor fit]"},
      {"compound": "Cc1cccc(CSc2nc3ccncc3n2Cc2ccc(C(=O)O)cc2)c1", "Potency": "inconclusive: 31.6 µM [activator, single point]"},
      {"compound": "O=C(CN1C(=O)NC2(CCCCCC2)C1=O)N1CCC(Cc2ccccc2)CC1", "Potency": "inconclusive: 35.5 µM [inhibitor, partial curve, poor fit]"},
      {"compound": "O=C(N/N=C/c1ccccc1)c1cc(-c2ccc3c(c2)OCO3)n[nH]1", "Potency": "inactive"},
      {"compound": "O=C(O)C=C1CCN(c2ncc(C(F)(F)F)cc2Cl)CC1", "Potency": "inactive"},
      {"compound": "C[C@@H](CN(C)C)CN1c2ccccc2CCc2ccccc21", "Potency": "active: 13 µM"},
      {"compound": "COc1ccc(-c2nnc(SCC(=O)Nc3cc(C)on3)n2N)cc1OC", "Potency": "inactive"},
      {"compound": "O=C1CCC(=O)N1c1ccc(CSc2nc3ccccc3[nH]2)cc1", "Potency": "inconclusive: 1.83 µM [activator, full curve, poor fit]"},
      {"compound": "C=CCc1ccc(OCCCCN2CC(C)CC(C)C2)c(OC)c1", "note": "(stereo not given)", "Potency": "active: 7.08 µM"},
      {"compound": "CC(=O)c1ccc(NC(=O)CSc2nc(=O)n3cccc(C)c3n2)cc1", "Potency": "inconclusive: 1.26 µM [inhibitor, single point]"},
      {"compound": "COc1cccc(C(=O)Nc2nc(-c3ccccc3)c(-c3ccccc3)o2)c1", "Potency": "inconclusive: 8.2 µM [inhibitor, partial curve, poor fit]"}
    ]}
  ]
}
